Percent effect of library compounds

Protein sequences, listed by entry. Tags and fused reporters are not part of them. Residues count along the entry.
UniProt P9WNZ1, whole entry: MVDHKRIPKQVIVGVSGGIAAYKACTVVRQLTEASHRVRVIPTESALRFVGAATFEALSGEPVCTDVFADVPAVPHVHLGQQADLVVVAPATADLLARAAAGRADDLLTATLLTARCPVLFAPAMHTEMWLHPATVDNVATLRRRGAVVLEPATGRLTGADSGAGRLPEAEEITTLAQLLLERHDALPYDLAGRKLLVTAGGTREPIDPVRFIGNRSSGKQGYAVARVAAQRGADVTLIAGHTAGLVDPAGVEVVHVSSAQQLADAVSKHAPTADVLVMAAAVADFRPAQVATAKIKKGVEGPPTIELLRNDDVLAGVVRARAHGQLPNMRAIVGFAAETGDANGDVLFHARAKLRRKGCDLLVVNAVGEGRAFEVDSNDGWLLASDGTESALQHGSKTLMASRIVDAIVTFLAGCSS
UniProt P9WFT3, whole entry: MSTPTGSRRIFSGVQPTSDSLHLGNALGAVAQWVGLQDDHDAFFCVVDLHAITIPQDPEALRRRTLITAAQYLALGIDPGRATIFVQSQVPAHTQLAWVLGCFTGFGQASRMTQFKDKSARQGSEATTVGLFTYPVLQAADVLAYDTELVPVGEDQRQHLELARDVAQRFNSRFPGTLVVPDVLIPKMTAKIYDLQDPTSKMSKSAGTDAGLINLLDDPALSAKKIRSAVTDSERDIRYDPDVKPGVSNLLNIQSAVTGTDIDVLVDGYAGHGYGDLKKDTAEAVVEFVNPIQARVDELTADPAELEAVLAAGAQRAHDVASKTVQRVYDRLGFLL
UniProt A4I591, 1-473: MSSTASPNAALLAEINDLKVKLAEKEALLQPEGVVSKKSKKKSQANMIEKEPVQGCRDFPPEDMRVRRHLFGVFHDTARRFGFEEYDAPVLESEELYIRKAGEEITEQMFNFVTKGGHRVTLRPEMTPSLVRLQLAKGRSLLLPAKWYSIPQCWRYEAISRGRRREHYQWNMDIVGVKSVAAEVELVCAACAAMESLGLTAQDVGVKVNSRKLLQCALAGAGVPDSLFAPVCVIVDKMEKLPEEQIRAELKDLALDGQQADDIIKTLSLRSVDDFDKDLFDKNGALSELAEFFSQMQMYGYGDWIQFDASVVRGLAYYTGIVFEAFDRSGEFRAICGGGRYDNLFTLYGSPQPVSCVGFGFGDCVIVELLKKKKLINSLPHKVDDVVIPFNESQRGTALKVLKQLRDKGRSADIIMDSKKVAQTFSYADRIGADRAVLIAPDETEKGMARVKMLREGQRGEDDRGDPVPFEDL

Results are given as percent effect. The record does not define 0% and 100%; most values in the screen are far below 50% and negative numbers occur (in some assays of this library far below -100). Compounds were drawn at random from those tested, without regard to their results. Two or more numbers in one place are separate tests of the same structure; such repeats can differ widely.

CoaBC: 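Coenzyme A biosynthesis protein CoaBC, Mycobacterium tuberculosis (UniProt P9WNZ1). Enzyme assay of CoaBC with a phosphate dye (Biomol Green) read at 650 nm. Concentration: 30 µM. Direction is inferred from only a few compounds that gave an IC50; most scored high, so higher reads as stronger inhibition. Most strong results did not repeat in a second test. About 67,000 compounds were tested under these conditions; 0.06% (about 40) showed 50% or more at least once.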
Toxoplasma: 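Assay of Toxoplasma gondii numbers, read through their beta-galactosidase reporter with a colour substrate. Tested at 10 µM. Higher reads as fewer parasites (inferred from which compounds were picked for retests). About 67,000 compounds were tested under these conditions; 0.38% (about 260) showed 50% or more at least once.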
Leishmania in macrophages: 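Cell assay of Leishmania donovani living inside macrophages; the read-out is not stated. Compounds at 30 µM. Higher reads as stronger inhibition (inferred: compounds with an IC50 in retests scored well above the rest). Of about 69,000 compounds tested this way, about 1,000 (1.5%) reached 50% or more in at least one test.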
MtTrpRS: 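Tryptophan-tRNA ligase, Mycobacterium tuberculosis (UniProt P9WFT3). Enzyme assay of tryptophanyl-tRNA synthetase; the read-out is not stated. Compounds at 10 µM. Higher most likely means stronger inhibition; the record gives no direction and few retests gave an IC50. Size under these conditions: about 65,000 compounds, about 64 of them at 50% or above in at least one test.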
LiHisRS: 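Enzyme assay of histidyl-tRNA synthetase; the read-out is not stated. Target: Histidine-tRNA ligase, Leishmania infantum (UniProt A4I591). Concentration: 30 µM. Higher reads as stronger inhibition (inferred: compounds with an IC50 in retests scored well above the rest). The assay is labelled LdHisRS but filed under L. infantum. Size under these conditions: about 69,000 compounds, about 410 of them at 50% or above in at least one test.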

compound: N#Cc1ccc(C(=O)O)nc1/C=C/c1cccc(F)c1
CoaBC: -3.571
Toxoplasma: -2.632
Leishmania in macrophages: 11.59
MtTrpRS: -3.199
LiHisRS: 2.083

compound: Cc1cc(NC(=O)c2ccc(-n3ncc(C#N)c3N)cc2)n(C)n1
CoaBC: 0.7874
Toxoplasma: -32.75
Leishmania in macrophages: 11.02
MtTrpRS: -9.169
LiHisRS: 6.78

compound: CC(=O)N1CCC(c2nc(Cc3ccccc3)no2)C1 (configuration not stated)
CoaBC: -2.885
Toxoplasma: 4.93
Leishmania in macrophages: 33.86
MtTrpRS: 0.2646
LiHisRS: 17.81

compound: O=C(c1ccc(=O)[nH]n1)N1CCCC(O)(CN2CCC(F)(F)CC2)CC1 (configuration not stated)
CoaBC: 7.601
Leishmania in macrophages: 30.78
MtTrpRS: -4.552
LiHisRS: 5.634

compound: Cc1noc2ncc(C(=O)N3CCCC3c3cnn(C)c3)cc12 (configuration not stated)
CoaBC: 1.799
Leishmania in macrophages: 5.527
MtTrpRS: -3.068
LiHisRS: -5.618

compound: CNC(=O)Cc1ccc(-n2ccnc2-c2cccc(C(=O)O)c2)cc1
CoaBC: 3.325
Toxoplasma: 26.32
Leishmania in macrophages: -5.4
MtTrpRS: 1.732
LiHisRS: 42.62

compound: Cc1noc(C)c1CCC(=O)N1CCn2cccc2C1C (configuration not stated)
CoaBC: -2.581
Toxoplasma: -3.838
Leishmania in macrophages: 2.379
MtTrpRS: -1.25
LiHisRS: 8.602

compound: CCCOCCN1CCc2[nH]c(-c3ccccc3)nc2C1
CoaBC: 11.11
Toxoplasma: -2.423
Leishmania in macrophages: 16.03
MtTrpRS: 13.35
LiHisRS: 12.28

compound: Cc1cc(C)cc(C(=O)Nc2cn[nH]c2)c1
CoaBC: 4.183
Toxoplasma: 10.39
Leishmania in macrophages: 20.24
MtTrpRS: -1.946
LiHisRS: 14.29

compound: N#Cc1c(Cl)nsc1N1CCN(CC2CCCCC2)CC1
CoaBC: 2.635
Toxoplasma: -1.345
Leishmania in macrophages: -1.584
MtTrpRS: 0.07886
LiHisRS: 13.56

compound: CCOc1c(Br)cc(CNCCc2nnc3n2CCCCC3)cc1OC.Cl
Toxoplasma: 0.7372
Leishmania in macrophages: 18.25

compound: O=C(NCC1CCS(=O)(=O)C1)c1cccc(CN2CCCC2)c1 (configuration not stated)
CoaBC: 2.542
Toxoplasma: 8.356
Leishmania in macrophages: 41.32
MtTrpRS: -3.732
LiHisRS: 18.48

compound: CC(C)N1CCC(N2CCC(C(=O)N(C)C)CC2)CC1
CoaBC: 2.788
LiHisRS: -1.923

compound: COc1ccc(CC(=O)N(C)Cc2nnc3ccccn23)cc1
CoaBC: 7.949
Toxoplasma: -5.611
Leishmania in macrophages: 5.51
MtTrpRS: 2.737
LiHisRS: 21.33

compound: COc1cc2c(cc1CNC(Cc1cccs1)c1nccs1)OCCO2.Cl (configuration not stated)
Toxoplasma: -8.624
Leishmania in macrophages: 7.302

compound: CCOC(=O)C1(Cc2ccccc2-c2ccccc2OC)CCNCC1.Cl
Toxoplasma: 44.64
Leishmania in macrophages: 51.68

compound: COc1ccc(CN2CCC(c3cc(O)nc(C)n3)C2)c(OC)c1.O=C(O)CC(O)(CC(=O)O)C(=O)O (configuration not stated)
Toxoplasma: -16.63
Leishmania in macrophages: 10.61 & 16.45

compound: NC1CCN(c2nccn3c(=O)[nH]nc23)CC1
CoaBC: -1.316
Toxoplasma: 30.53
Leishmania in macrophages: -2.724
MtTrpRS: 3.889
LiHisRS: -1.379

compound: COc1ncc(C(F)(F)F)c(C(=O)O)c1Cl
CoaBC: 2.762
Toxoplasma: 14.05
Leishmania in macrophages: -2.582
MtTrpRS: 8.721
LiHisRS: -2.083

compound: CCNC(=O)NCc1ccc(CN2CCCC(C)C2)cc1 (configuration not stated)
CoaBC: 3.045
Toxoplasma: -1.202
Leishmania in macrophages: -3.584
MtTrpRS: 4.152
LiHisRS: 18.28

compound: O=C(c1ccsc1)N1CCC(c2nnc(C3CC3)o2)CC1
CoaBC: 0.1318
Toxoplasma: -12.46
Leishmania in macrophages: -0.9346
MtTrpRS: 11.37
LiHisRS: 12.33

compound: COc1ccc(Cl)cc1-c1nc(N)nc(N(C)C)n1
CoaBC: -13.87
Toxoplasma: 9.12
Leishmania in macrophages: 7.559
MtTrpRS: 1.876
LiHisRS: 8.046

compound: CCc1nc(CC(=O)N2CCC(C(=O)N3CCCCC3)CC2)cs1
CoaBC: 7.171
Toxoplasma: -6.132
Leishmania in macrophages: -0.9671
MtTrpRS: 0.2865
LiHisRS: -24.66

compound: Cc1nc2c(c(N3CCCOCC3)n1)CCN(C(=O)N1CCCC1)CC2
CoaBC: -2.991
Toxoplasma: 6.921
Leishmania in macrophages: 43.39
MtTrpRS: -5.068
LiHisRS: 6.838

compound: c1cnnc(N2CCC(c3nnc(Cn4ccnc4)n3C3CC3)CC2)c1
CoaBC: -1.071
Toxoplasma: -8.036
Leishmania in macrophages: 0.4632
MtTrpRS: -1.783
LiHisRS: 20

compound: CN1CCC(N(Cc2ccncc2)Cc2nc3c(s2)CCCC3)CC1
CoaBC: 12.01
Toxoplasma: 11.51
Leishmania in macrophages: 11.12
MtTrpRS: 1.583
LiHisRS: 15.05

compound: CCc1nn(C)c(Cl)c1CN1CCN(c2ccc(C(N)=O)cn2)CC1
CoaBC: 5.161
Toxoplasma: -2.497
Leishmania in macrophages: 6.41
MtTrpRS: -0.4571
LiHisRS: 14.47

Repeated from the top, 2 entries:

compound	CoaBC	Toxoplasma	Leishmania in macrophages	MtTrpRS	LiHisRS
N#Cc1ccc(C(=O)O)nc1/C=C/c1cccc(F)c1	-3.571	-2.632	11.59	-3.199	2.083
Cc1cc(NC(=O)c2ccc(-n3ncc(C#N)c3N)cc2)n(C)n1	0.7874	-32.75	11.02	-9.169	6.78

Source: ChEMBL document CHEMBL3988442, “University of Dundee, Small-Polar-MMV Screening Library” (2021).